Structures were worked out from names or drawings and are uncertain.
Assays:
ATR kinase = ATR kinase (Homo sapiens, UniProt Q13535); assay: Assay of ATR kinase activity (time-resolved fluorescence, phosphorylation of p53-derived protein); conditions: read-out: ATR/IC50/nM; tested form: TFA salt
Method: Biotinylated protein derived from p53 (Eurofins, art. No.: 14-952) was phosphorylated with ATR kinase. The amount of phosphorylated protein was determined by time-resolved fluorescence in this assay. The amount of phosphorylated protein was detected by anti-p53-phospho-(serine 15)-K-specific antibody (Cisbio, art. No.: 61GSTDLA) and d2 labeled anti-GST antibody (Cisbio, art. No. 61P08KAE). Before the assay, the following working solutions were formulated as required: 1×reaction buffer (20 mM HEPES PH8.0, 1% glycerol, 0.01% Brij-35), dilution buffer (20 mM HEPES PH8.0, 1% glycerol, 0.01% Brij-35, 5 mM DTT and 1% BSA), stop solution (20 mM HEPES PH8.0, 1% glycerol, 0.01% Brij-35, 250 mM EDTA), detection buffer (50 mM HEPES pH7.0, 150 mM NaCl, 267 mM KF, 0.1% sodium cholate, 0.01% Tween-20, 0.0125% sodium azide). […]
4× serially diluted compound solutions were prepared with 1× reaction buffer to give 9 compound solutions with different concentrations, and 2.5 μL of the 4× serially diluted compound solutions were added to a 384-well analysis plate (784075, Greiner). […] The fluorescence signal was detected with ENVISION (Perkinelmer) instrument (excitation wavelength: 320 nm, emission wavelength: 665 nm and 615 nm). […] IC50 values of compounds were calculated by standard software for parameter fitting (GraphPad Prism 6.0).

Chains of the proteins cited; added tags and fusions are not shown.
UniProt Q13535, whole entry: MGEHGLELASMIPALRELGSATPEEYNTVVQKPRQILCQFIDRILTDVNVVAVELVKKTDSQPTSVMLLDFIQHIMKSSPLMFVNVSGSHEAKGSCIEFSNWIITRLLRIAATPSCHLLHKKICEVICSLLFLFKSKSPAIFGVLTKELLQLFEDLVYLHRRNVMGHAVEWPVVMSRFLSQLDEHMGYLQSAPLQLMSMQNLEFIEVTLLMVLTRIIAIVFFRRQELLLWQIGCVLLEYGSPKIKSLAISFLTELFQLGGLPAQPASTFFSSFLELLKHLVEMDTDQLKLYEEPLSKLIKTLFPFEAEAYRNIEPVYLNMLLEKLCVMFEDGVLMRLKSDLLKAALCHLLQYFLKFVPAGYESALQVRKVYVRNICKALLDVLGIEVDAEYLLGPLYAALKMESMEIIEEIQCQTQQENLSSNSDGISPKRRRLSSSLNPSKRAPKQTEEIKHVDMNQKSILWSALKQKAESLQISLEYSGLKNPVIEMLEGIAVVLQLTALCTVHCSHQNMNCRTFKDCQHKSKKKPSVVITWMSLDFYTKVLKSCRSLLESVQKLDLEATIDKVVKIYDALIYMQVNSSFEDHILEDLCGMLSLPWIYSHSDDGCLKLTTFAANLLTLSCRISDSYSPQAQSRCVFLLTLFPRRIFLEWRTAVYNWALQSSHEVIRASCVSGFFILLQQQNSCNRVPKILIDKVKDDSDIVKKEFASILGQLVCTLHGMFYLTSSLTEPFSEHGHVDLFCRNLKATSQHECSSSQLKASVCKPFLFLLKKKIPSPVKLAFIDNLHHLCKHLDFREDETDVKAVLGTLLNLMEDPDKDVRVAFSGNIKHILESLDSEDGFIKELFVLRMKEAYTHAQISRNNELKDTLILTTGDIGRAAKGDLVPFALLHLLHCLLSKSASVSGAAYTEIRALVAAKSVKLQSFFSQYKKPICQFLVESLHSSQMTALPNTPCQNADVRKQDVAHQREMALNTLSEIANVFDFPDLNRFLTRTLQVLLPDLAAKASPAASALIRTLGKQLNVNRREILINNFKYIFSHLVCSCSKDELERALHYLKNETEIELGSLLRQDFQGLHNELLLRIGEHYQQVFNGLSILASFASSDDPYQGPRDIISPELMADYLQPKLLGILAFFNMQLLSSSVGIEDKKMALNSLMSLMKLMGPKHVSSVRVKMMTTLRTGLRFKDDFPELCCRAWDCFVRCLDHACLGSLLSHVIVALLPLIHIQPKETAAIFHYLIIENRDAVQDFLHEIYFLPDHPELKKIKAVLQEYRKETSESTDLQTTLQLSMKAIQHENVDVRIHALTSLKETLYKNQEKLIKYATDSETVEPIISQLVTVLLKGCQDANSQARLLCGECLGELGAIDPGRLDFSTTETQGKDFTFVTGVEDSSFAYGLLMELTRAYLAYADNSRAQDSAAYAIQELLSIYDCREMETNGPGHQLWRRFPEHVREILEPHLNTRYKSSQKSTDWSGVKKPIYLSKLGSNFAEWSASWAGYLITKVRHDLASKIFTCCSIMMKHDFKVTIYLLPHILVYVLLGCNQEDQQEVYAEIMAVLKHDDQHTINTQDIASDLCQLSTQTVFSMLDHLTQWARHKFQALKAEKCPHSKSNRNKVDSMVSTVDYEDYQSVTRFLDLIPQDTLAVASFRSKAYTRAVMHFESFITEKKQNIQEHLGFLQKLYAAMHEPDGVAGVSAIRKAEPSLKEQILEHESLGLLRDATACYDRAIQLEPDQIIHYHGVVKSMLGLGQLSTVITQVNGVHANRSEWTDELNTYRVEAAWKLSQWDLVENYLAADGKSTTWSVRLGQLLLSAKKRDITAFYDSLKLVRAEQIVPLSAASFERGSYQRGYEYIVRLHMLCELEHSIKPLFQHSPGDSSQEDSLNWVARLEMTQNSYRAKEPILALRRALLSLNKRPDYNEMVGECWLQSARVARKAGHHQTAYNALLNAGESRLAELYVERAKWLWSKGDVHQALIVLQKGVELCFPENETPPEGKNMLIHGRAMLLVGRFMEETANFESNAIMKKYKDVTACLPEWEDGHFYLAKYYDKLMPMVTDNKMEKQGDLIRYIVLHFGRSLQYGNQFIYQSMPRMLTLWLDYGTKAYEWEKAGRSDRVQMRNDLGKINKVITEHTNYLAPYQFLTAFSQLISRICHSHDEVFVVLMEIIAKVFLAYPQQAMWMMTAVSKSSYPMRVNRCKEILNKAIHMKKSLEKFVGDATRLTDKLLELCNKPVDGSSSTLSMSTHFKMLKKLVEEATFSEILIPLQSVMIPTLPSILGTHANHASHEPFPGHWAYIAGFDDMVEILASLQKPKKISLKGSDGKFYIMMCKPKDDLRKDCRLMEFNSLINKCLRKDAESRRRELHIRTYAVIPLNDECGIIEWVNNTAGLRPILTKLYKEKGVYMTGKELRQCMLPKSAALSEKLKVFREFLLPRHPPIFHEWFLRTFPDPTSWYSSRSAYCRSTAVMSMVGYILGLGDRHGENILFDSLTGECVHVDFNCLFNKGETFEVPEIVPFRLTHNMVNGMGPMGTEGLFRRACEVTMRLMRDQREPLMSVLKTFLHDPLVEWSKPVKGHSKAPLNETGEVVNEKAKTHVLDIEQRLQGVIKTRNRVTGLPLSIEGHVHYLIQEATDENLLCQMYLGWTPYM
UniProt Q8WXE1, whole entry partner: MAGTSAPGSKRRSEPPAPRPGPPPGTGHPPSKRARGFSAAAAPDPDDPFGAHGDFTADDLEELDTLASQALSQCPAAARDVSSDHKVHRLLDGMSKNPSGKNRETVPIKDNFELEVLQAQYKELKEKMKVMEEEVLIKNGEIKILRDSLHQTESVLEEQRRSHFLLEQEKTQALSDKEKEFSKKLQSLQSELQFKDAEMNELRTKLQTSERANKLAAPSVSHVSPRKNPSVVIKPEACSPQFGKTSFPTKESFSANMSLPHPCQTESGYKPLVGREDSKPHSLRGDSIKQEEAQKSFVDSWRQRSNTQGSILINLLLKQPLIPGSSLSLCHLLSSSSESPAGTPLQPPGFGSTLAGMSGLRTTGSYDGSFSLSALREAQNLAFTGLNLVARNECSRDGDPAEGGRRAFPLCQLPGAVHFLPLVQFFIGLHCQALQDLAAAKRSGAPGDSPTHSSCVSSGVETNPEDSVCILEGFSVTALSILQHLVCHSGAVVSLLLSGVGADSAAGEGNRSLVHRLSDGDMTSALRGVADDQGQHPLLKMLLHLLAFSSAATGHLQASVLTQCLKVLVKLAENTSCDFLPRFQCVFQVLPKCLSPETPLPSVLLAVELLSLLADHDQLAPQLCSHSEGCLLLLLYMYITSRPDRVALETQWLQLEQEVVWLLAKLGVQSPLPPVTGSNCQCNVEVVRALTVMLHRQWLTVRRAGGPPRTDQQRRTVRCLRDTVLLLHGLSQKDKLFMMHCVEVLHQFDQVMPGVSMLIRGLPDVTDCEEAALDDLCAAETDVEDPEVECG

TOV21G (ovarian cancer) = assay: Cell proliferation inhibition in vitro, CellTiter-Glo, TOV21G; type: cell-based, human; conditions: read-out: TOV21G/IC50/μM, TOV21G cells, 120 hours, tested form: TFA salt
Method: (§1) By detecting the effect of compounds on cell activity in vitro in tumor cell lines TOV21G (ovarian cancer) and MV4-11 (leukemia), the inhibitory effect of compounds on cell proliferation was studied in this assay.
(§2) TOV21G cells and MV4-11 cells were purchased from American Type Culture Collection (ATCC).
TOV21G cells were cultured in MCDB105/M199 medium (containing 15% of FBS), and used for assaying when the cell confluence reached 85% or more. About 1000 cells were inoculated in each well of a 96-well culture plate, and cultured for 24 hours. Different concentrations (0-10 μM) of compounds to be assayed were added to treat the cells. Each group was assayed in triplicate. Blank wells (containing medium only) and control wells (inoculated cells without being treated with drug) were set. Cells were cultured for 120 hours. 40 μL of Cell Titer-Glo solutions (Promega, #G7573) were added to each well, and the cells were incubated with shaking for 20 min in the dark. 100 μL of solution was transferred from each well to a 96-well blank plate (Corning, #3917), and the luminescence value was read by Biotek Synergy H1 multifunctional microplate reader.

MV4-11 (leukemia) = assay: Cell proliferation inhibition in vitro, CellTiter-Glo, MV4-11; type: cell-based, human; conditions: read-out: MV4-11/IC50/μM, MV4-11 cells, 120 hours, tested form: TFA salt
Method: as §1, §2
MV-4-11 cells were cultured in IMDM medium (containing 20% of FBS). About 10,000 cells were inoculated in each well of a 96-well culture plate, and treated by adding different concentrations (0-10 μM) of compounds to be assayed. Each group was assayed in triplicate. Blank wells (containing medium only) and control wells (inoculated cells without being treated with drug) were set. Cells were cultured for 120 hours. 40 μL of Cell Titer-Glo solutions were added to each well, and the cells were incubated with shaking for 20 min in the dark. 100 μL of solution was transferred from each well to a 96-well blank plate, and the luminescence value was read by Biotek Synergy HI multifunctional microplate reader. Inhibition rate (%)=100%×(control well−assay well)/(control well−blank well)

Compound: Cc1nn(-c2ccccc2)c(C)c1-c1cc(N2CCOC[C@H]2C)nc(-c2cc(F)cc3[nH]ccc23)n1
- IC50 (ATR kinase): 29 nM
- IC50 (TOV21G (ovarian cancer)): 0.726 µM
- IC50 (MV4-11 (leukemia)): 1.41 µM

— patent publication US12692257B2, “2,4,6-tri-substituted pyrimidine compounds as ATR kinase inhibitors” (BEIJING TIDE PHARMACEUTICAL CO., LTD., priority 2020, dated 2026)
